# System: GABAARs in δKO mouse forebrain membranes
# Experiment: Saturation analysis of [^3H]muscimol binding, δKO forebrain membranes
# Experimental: WT and δKO forebrain membranes were prepared using the method of Squires and Saederup as modified by Uusi-Oukari et al.. Homogenized and washed membranes were suspended in 10 mM Tris–HCl, pH 7.4 and stored at -70 °C.
# The effect of AA29504 on the association and dissociation of [^3H]muscimol binding was measured essentially as described by Benkherouf et al.. Saturation analysis of [^3H]muscimol was performed essentially as described by Uusi-Oukari and Korpi. Triplicate samples of the membranes were incubated in assay buffer with a concentration series of [^3H]muscimol (1–50 nM) at room temperature (22 °C) for 60 min in the absence and presence of 10 µM AA29504. […] .
# GraphPad Prism software (GraphPad, San Diego, CA, USA) was used for nonlinear least squares curve-fitting and statistical testing of association, dissociation, saturation binding and radioligand displacement data. The association and dissociation curves were used for the estimation of association (Kon) and dissociation (Koff) rate constants. Saturation binding curves were used for the estimation of total number of high-affinity binding sites (Bmax), and equilibrium dissociation constants (KD). […] . Statistical comparisons were made with One-way ANOVA, Two-way ANOVA or Brown-Forsythe and Welch ANOVA followed by the relevant (Tukey’s or Dunnett’s) post hoc tests for multiple comparisons. […] . […]
smiles,measurement,setting,value
[3H]C([3H])(N)c1cc(=O)[nH]o1 [[^3H]muscimol],Bmax,"with AA29504 (10 µM), 22 °C",8.1 ± 0.6 pmol/mg protein
same,Bmax,"without AA29504, 22 °C",6.1 ± 0.6 pmol/mg protein
